{"source": "patent US4386076A", "about": "“(E)-5-(2-Halogenovinyl)-arabinofuranosyluracil, process for preparation thereof, and uses thereof” (Yamasa Shoyu Kabushiki Kaisha, priority 1979, dated 1983)", "origin": "cited, not measured here", "key": {"[1]": {"tested_on": "normal cells", "conditions": "prior art; cited from earlier work"}, "[2]": {"tested_on": "herpes virus", "conditions": "prior art; cited from earlier work"}}, "note": "At least one compound was matched to its structure with a doubt left."}
{"smiles": "C=Cc1cn([C@@H]2O[C@H](CO)[C@@H](O)[C@@H]2O)c(=O)[nH]c1=O", "note": "[5-vinyl-araU, 5-vinylarabinofuranosyluracil, reference compound]", "values": [{"measurement": "inhibiting action on proliferation of normal cells", "setting": "[1]", "result": "almost no inhibiting action"}, {"measurement": "inhibitory action on the infection and proliferation of herpes virus", "setting": "[2]", "result": "strong inhibitory action"}]}
